The exact form of at least one protein or probe is not confirmed. For some assays here: At least one verdict was read from the data and is not stated in words by the source. For some assays here: Whether high values mean tight binding is not given here for every scale.
What was measured:
[1] = target: BioHfq (Escherichia coli) (UniProt P0A6X3); test: competition (smTIRF); details: 5 min, EMSA: 2 nM 32P-DsrA, room temperature, 30 min, competition in TNK buffer (10 mM Tris-HCl pH 7.5, 50 mM NaCl, 50 mM KCl), 5 nM Hfq, recombinant protein
[2] = target: BioHfq (Escherichia coli) (UniProt P0A6X3); test: smTIRF colocalization; details: smTIRF: 5 nM Cy5 competitor, 5 min, recombinant protein, scale: % resident-Hfq showing competitor binding
[3] = target: BioHfq (Escherichia coli) (UniProt P0A6X3); test: smTIRF; details: smTIRF: 5 nM Cy5 competitor, 5 min, recombinant protein, label: 5' Cy3 or Cy5
[4] = DsrA resident on Hfq, label: 5' Cy3 or Cy5
[5] = ChiX resident on Hfq, label: 5' Cy3 or Cy5

Amino acid sequences for entries named in this document (tags omitted). A change or cut given only in a name is not applied to a line headed by its entry.
UniProt P0A6X3: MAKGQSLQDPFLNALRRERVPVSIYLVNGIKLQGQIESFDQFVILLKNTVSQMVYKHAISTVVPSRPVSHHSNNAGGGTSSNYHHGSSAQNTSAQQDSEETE

**Q.** For “GGACACCGUCGCUUAAAGUGACGGCAUAAUAAUAAAAAAAU [ChiX_dist]”, which binding signal ([1]; DsrA resident, commonly co-resides with DsrA, label: 5' Cy5, scale: % DsrA resident remaining at 5 nM competitor) is on record?
**A.** The binding signal was 79.

**Q.** For “GGACACCGUCGCUUAAAGUGACGGCAUAAUAAUAAAAAAAUGAAAUUCCUCUUUGACGGGCCAAUAGCGAUAUUGGCCAUUUUUUU [ChiX]”, which binding signal [2, 4] is on record?
**A.** The binding signal was 77.1.

**Q.** Which results are given for “GGCUGAAAAACAUAACCCAUAAAAUGCUAGCUGUACCAGGAACCACCUCCUUAGCCUGUGUAAUCUCCCUUACACGGGCUUAUUUUUU [CyaR]”?
**A.** binding result ([3]; CyaR as Cy3 resident): binds; binding signal [2, 5]: 17.3; binding signal [2, 4]: 74.7

**Q.** Which binding signal ([1]; ChiX resident, label: 5' 32P (EMSA), 5' Cy3 or Cy5 (smTIRF), scale: % ChiX resident remaining at 5 nM competitor) does the source give for “GGGAACACAUCAGAUUUCCUGGUGUAACGAAUUUUUUAAGUGCUUCUUGCUUAAGCAAGUUUCAUCCCGACCCCCUCAGGGUCGGGAUUUUUUU [DsrA]” here?
**A.** Its binding signal is 87.

**Q.** And the binding signal ([2]; ChiX resident on Hfq, label: 5' 32P (EMSA), 5' Cy3 or Cy5 (smTIRF))?
**A.** Its binding signal is 82.1.

**Q.** What about the binding signal ([2]; DsrA resident on Hfq, label: 5' 32P (EMSA), 5' Cy3 or Cy5 (smTIRF)) of the same sequence?
**A.** The binding signal was 64.9.

**Q.** Does “GGUUCCGAUGUAGACCCGUCCUCCUUCGCCUGCGUCACGGGUCCUGGUUAGACGCAGGCGUUUUCU [RydC]” bind ([3]; RydC as Cy3 resident)?
**A.** Result: binds

**Q.** What about the binding signal [2, 5] of the same sequence?
**A.** Its binding signal is 71.

**Q.** What about the binding signal [2, 4] of the same sequence?
**A.** The binding signal was 62.9.
